Experimental data taken from patent US20200377869.
The exact form of at least one protein or probe is not confirmed. For some of these results: No signal at the amounts used counts as a negative. For some of these results: Protein sequences can lack the tags named with them.

By UniProt entry, the sequences of proteins in these tests, tags left out.
UniProt P19821, whole entry: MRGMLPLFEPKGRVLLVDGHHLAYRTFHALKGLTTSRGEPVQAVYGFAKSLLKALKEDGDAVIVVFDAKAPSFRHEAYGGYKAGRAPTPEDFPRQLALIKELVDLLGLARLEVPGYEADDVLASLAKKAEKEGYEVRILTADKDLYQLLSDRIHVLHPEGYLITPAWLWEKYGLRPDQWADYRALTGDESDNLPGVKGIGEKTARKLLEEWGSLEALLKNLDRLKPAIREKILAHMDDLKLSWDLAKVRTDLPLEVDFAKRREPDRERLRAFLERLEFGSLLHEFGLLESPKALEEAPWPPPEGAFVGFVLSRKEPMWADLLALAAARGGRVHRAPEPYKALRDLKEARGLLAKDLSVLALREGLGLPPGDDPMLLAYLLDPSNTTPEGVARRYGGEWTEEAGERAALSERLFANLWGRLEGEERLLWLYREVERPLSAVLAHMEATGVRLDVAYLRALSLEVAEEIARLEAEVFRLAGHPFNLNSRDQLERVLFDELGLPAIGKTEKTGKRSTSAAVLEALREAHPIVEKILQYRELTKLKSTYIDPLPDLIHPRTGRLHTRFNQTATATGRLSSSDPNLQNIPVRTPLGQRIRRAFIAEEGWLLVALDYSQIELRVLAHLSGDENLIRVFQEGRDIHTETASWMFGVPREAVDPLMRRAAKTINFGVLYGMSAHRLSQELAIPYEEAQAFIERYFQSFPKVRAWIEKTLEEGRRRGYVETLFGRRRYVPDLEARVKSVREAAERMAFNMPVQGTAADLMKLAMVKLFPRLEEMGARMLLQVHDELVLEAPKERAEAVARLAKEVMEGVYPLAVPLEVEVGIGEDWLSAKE

Key:
[1] = target: T1, Endonuclease V (Thermotoga maritima) (UniProt Q9X2H9); assay: enzyme reaction in vitro; conditions: deoxyinosine at position 12 (n), loop TTCITAGCGTTT [12 deoxyinosine (parent base T)]; very effective reactivation of Taq (indirect readout); purified recombinant protein; protein details: Fisher Scientific FEREN0141; folded or branched DNA; letters built from the parent sequence and the stated change; variant of circular aptamer SEQ ID NO:6
T1 sequence (looked up, limits assumed): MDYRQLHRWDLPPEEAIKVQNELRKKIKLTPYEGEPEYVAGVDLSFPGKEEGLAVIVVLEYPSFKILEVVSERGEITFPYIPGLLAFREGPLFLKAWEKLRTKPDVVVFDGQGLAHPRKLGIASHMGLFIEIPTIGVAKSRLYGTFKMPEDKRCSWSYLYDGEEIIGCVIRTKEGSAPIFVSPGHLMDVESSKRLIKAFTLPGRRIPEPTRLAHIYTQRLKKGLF

[2] = target: T2, Bst DNA polymerase large fragment (UniProt P52026); assay: inhibition of the protein; conditions: deoxyinosine at position 12 (n), loop TTCITAGCGTTT [12 deoxyinosine (parent base T)]; not inactivated by aptamer; 80 nM, 5 mM MgCl2, 60 or 65 C; purified recombinant protein; protein details: New England Biolabs M0275S; folded or branched DNA; letters built from the parent sequence and the stated change; variant of circular aptamer SEQ ID NO:6
T2 sequence (looked up, limits assumed): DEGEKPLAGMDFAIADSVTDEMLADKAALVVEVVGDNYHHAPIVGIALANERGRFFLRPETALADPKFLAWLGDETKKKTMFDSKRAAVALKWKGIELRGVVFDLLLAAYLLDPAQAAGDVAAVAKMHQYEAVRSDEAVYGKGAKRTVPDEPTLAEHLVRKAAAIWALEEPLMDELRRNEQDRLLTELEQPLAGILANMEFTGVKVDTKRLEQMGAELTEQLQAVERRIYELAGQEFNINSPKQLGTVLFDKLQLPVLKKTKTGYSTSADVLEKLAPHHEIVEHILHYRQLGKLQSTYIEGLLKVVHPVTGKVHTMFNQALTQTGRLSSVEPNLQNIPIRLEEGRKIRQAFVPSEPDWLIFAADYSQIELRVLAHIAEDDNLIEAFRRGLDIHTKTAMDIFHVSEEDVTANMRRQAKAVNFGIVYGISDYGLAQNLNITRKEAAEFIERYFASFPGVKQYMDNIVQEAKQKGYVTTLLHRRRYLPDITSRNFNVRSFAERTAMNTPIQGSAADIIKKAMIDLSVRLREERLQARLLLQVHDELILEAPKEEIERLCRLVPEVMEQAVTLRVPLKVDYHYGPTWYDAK

Deep Vent DNA polymerase = target: T3, Deep Vent DNA polymerase (UniProt Q51334); assay: inhibition of the protein; conditions: deoxyinosine at position 12 (n), loop TTCITAGCGTTT [12 deoxyinosine (parent base T)]; inactivated, reactivated by endonuclease V; 80 nM aptamer, 5 mM MgCl2, 60 or 65 C; purified recombinant protein; protein details: New England Biolabs M0258S; folded or branched DNA; letters built from the parent sequence and the stated change; variant of circular aptamer SEQ ID NO:6
T3 sequence (looked up, limits assumed): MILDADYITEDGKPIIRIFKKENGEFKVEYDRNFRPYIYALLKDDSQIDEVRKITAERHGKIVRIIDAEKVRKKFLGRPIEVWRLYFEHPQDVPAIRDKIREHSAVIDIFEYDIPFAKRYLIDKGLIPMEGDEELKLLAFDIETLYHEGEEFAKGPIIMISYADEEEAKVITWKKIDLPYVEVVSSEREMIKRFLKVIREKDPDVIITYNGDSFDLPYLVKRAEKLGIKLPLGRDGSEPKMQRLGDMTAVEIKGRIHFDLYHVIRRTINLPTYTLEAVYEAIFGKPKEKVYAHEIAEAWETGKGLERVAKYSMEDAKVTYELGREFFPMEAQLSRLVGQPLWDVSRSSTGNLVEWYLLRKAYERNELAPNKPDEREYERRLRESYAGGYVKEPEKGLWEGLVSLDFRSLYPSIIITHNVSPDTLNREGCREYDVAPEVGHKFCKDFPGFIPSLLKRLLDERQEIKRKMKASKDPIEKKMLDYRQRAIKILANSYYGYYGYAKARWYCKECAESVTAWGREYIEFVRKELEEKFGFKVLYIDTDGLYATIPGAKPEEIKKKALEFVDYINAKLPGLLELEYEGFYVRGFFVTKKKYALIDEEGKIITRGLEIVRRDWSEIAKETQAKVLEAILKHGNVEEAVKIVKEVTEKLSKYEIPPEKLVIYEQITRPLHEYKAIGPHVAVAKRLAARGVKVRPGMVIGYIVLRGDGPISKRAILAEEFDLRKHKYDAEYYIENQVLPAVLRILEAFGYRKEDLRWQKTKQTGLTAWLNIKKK

Phusion DNA polymerase = assay: inhibition of the protein; conditions: deoxyinosine at position 12 (n), loop TTCITAGCGTTT [12 deoxyinosine (parent base T)]; inactivated, reactivated by endonuclease V; 80 nM aptamer, 5 mM MgCl2, 60 or 65 C; purified recombinant protein; protein details: New England Biolabs M0530S; folded or branched DNA; letters built from the parent sequence and the stated change; variant of circular aptamer SEQ ID NO:6
Q5 DNA polymerase = assay: inhibition of the protein; conditions: deoxyinosine at position 12 (n), loop TTCITAGCGTTT [12 deoxyinosine (parent base T)]; inactivated, reactivated by endonuclease V; 80 nM aptamer, 5 mM MgCl2, 60 or 65 C; purified recombinant protein; protein details: New England Biolabs M0491S; folded or branched DNA; letters built from the parent sequence and the stated change; variant of circular aptamer SEQ ID NO:6
Taq DNA polymerase = Taq DNA polymerase (UniProt P19821); assay: inhibition of the protein; conditions: deoxyinosine at position 12 (n), loop TTCITAGCGTTT [12 deoxyinosine (parent base T)]; very effective deactivation; 80 nM aptamer, PCR and hairpin-extension assay, 5 mM MgCl2; purified recombinant protein; protein details: GenScript E00007; folded or branched DNA; letters built from the parent sequence and the stated change; variant of circular aptamer SEQ ID …
Vent DNA polymerase = target: T4, Vent DNA polymerase (UniProt P30317); assay: inhibition of the protein; conditions: deoxyinosine at position 12 (n), loop TTCITAGCGTTT [12 deoxyinosine (parent base T)]; inactivated, reactivated by endonuclease V; 80 nM aptamer, 5 mM MgCl2, 60 or 65 C; purified recombinant protein; protein details: New England Biolabs M0254S; folded or branched DNA; letters built from the parent sequence and the stated change; variant of circular aptamer SEQ ID NO:6
T4 sequence (looked up, limits assumed): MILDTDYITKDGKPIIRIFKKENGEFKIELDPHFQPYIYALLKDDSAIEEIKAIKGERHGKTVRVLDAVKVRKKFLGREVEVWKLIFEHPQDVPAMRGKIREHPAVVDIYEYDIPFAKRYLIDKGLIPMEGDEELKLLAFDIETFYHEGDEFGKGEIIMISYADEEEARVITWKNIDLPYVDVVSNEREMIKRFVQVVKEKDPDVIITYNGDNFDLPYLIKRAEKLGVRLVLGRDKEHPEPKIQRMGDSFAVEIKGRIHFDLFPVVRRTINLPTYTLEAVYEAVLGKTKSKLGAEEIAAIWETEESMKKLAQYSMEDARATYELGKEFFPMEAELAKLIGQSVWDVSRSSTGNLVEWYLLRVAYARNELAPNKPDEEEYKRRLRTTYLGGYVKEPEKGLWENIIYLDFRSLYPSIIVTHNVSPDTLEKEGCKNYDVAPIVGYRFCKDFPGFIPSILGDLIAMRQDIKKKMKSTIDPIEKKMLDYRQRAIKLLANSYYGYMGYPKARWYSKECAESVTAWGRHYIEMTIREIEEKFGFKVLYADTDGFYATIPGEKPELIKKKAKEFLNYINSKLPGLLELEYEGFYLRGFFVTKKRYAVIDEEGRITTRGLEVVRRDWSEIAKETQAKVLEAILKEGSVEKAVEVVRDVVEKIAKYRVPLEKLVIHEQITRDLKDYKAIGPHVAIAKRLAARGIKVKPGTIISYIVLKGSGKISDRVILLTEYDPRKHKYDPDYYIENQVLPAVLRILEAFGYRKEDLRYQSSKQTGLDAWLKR

AAATTATATTCTTAGCGTTTTATAATTTTAAAACGAAGTTTTA [circular aptamer SEQ ID NO:12]
active: activity on this sequence [1] | functional effect of the aptamer (Deep Vent DNA polymerase) | functional effect of the aptamer (Phusion DNA polymerase) | functional effect of the aptamer (Q5 DNA polymerase) | functional effect of the aptamer (Taq DNA polymerase) | functional effect of the aptamer (Vent DNA polymerase)
not active: functional effect of the aptamer [2]
